Test results as given in patent publication US20160151444A1, “METHODS FOR THE PREVENTION OR TREATMENT OF VESSEL OCCLUSION INJURY” (Stealth Peptides International, Inc., priority 2009, published 2016).

Tested on: New Zealand white rabbits
Assay: Rabbit model of acute myocardial ischemia and reperfusion (coronary occlusion), infarct size by histomorphometry
Format: in vivo
Conditions: peptide group versus placebo group
Protocol: New Zealand white rabbits were used in this study. The rabbits were males and >10 weeks in age. Environmental controls in the animal rooms were set to maintain temperatures of 61° to 72° F. and relative humidity between 30% and 70%. Room temperature and humidity were recorded hourly, and monitored daily. There were approximately 10-15 air exchanges per hour in the animal rooms. Photoperiod was 12-hr light/12-hr dark (via fluorescent lighting) with exceptions as necessary to accommodate dosing and data collection. Routine daily observations were performed. Harlan Teklad, Certified Diet (2030C), rabbit diet was provided approximately 180 grams per day from arrival to the facility. In addition, fresh fruits and vegetables were given to the rabbit 3 times a week.
The peptide D-Arg-2′6′-Dmt-Lys-Phe-NH2 (sterile lyophilized powder) was used as the test article. […]
In all cases, treatments were started approximately 10 min after the onset of a 30 min ischemic insult (coronary occlusion) and continued for up to 3 h following reperfusion. In all cases, cardiovascular function was monitored both prior to and during ischemia, as well as for up to 180 min (3 h) post-reperfusion. The experiments were terminated 3 h post-reperfusion (end of study); irreversible myocardial injury (infarct size by histomorphometery) at this time-point was evaluated, and was the primary-end-point of the study. […]

## D-Arg-2′,6′-Dmt-Lys-Phe-NH2 [D-Arg-2′6′-Dmt-Lys-Phe-NH2]
  AR/LV, % versus placebo: 6 ± 3%
